Source: paper PMC12806394
Results are given in words; binding and its absence hold for the method and conditions named. In cells and extracts the contact can be indirect. Some binding calls cover weakened binding; strength is not graded here.

Amino acid sequences for entries named in this document (tags omitted).
UniProt P39748: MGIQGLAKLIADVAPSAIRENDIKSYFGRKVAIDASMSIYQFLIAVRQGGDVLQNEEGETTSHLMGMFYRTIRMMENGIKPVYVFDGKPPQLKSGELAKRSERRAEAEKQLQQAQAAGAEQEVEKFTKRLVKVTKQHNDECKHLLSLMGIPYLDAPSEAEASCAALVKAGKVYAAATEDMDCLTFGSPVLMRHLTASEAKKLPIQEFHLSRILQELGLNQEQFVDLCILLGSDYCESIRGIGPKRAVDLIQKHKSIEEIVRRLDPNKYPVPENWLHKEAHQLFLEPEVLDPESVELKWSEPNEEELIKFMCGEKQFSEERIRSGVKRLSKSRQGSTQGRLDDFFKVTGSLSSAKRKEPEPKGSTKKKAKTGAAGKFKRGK

B1: RAD9A (protein, UniProt Q99638 1-391)
chain: MKCLVTGGNVKVLGKAVHSLSRIGDELYLEPLEDGLSLRTVNSSRSAYACFLFAPLFFQQYQAATPGQDLLRCKILMKSFLSVFRSLAMLEKTVEKCCISLNGRSSRLVVQLHCKFGVRKTHNLSFQDCESLQAVFDPASCPHMLRAPARVLGEAVLPFSPALAEVTLGIGRGRRVILRSYHEEEADSTAKAMVTEMCLGEEDFQQLQAQEGVAITFCLKEFRGLLSFAESANLNLSIHFDAPGRPAIFTIKDSLLDGHFVLATLSDTDSHSQDLGSPERHQPVPQLQAHSTPHPDDFANDDIDSYMIAMETTIGNEGSRVLPSISLSPGPQPPKSPGPHSEEEDEAEPSTVPGTPPPKKFRSLFFGSILAPVRSPQGPSPVLAEDSEGEG
B2: HUS1 (protein, UniProt O60921 1-280)
chain: MKFRAKIVDGACLNHFTRISNMIAKLAKTCTLRISPDKLNFILCDKLANGGVSMWCELEQENFFNEFQMEGVSAENNEIYLELTSENLSRALKTAQNARALKIKLTNKHFPCLTVSVELLSMSSSSRIVTHDIPIKVIPRKLWKDLQEPVVPDPDVSIYLPVLKTMKSVVEKMKNISNHLVIEANLDGELNLKIETELVCVTTHFKDLGNPPLASESTHEDRNVEHMAEVHIDIRKLLQFLAGQQVNPTKALCNIVNNKMVHFDLLHEDVSLQYFIPALS
B3: RAD1 (protein, UniProt O60671 1-282)
chain: MPLLTQQIQDEDDQYSLVASLDNVRNLSTILKAIHFREHATCFATKNGIKVTVENAKCVQANAFIQAGIFQEFKVQEESVTFRINLTVLLDCLSIFGSSPMPGTLTALRMCYQGYGYPLMLFLEEGGVVTVCKINTQEPEETLDFDFCSTNVINKIILQSEGLREAFSELDMTSEVLQITMSPDKPYFRLSTFGNAGSSHLDYPKDSDLMEAFHCNQTQVNRYKISLLKPSTKALVLSCKVSIRTDNRGFLSLQYMIRNEDGQICFVEYYCCPDEEVPESES

Biological target: FEN1, wild type, overexpressed from plasmid (UniProt P39748)
Assay: co-IP; 293T cells overexpressing the FEN1 plasmid, with or without Oxamate (50 mM, 24 h); whole cell extracts; immunoblot

binding	Binder
binds	B1
binds	B2
binds	B3
